# Structures can show the parent of a compound that is named as a salt. ± gives the standard deviation of the averaged measurements. The list shows a part of the results. Values are raw readings; no control value is given beside them.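 Ribosome-assembly readouts in HeLa cells were imaged via ENP1 staining, with or without export block, or inducible tagged ribosomal protein reporters. Machine learning classified per-cell signal location versus solvent (DMSO) controls. Hits surpassed the DMSO false-positive mean by five standard deviations and were visually confirmed; three biological replicates.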
# Test system: HeLa RPS2-YFP reporter
# Experiment: fraction of reporter-positive cells with nuclear (nucleolar or nucleolar/nucleoplasmic) RPS2-YFP (MainHitrate); higher = more cells with nucleolar/nuclear readout signal (for ENP1 -LMB: less RNAPI inhibition; for +LMB ENP1 and RP reporters: stronger nuclear/nucleolar retention, i.e. ribosome biogenesis defect)
# Conditions: concentration: 1 µM; treatment time: 6 h
row,Structure (SMILES),fraction of reporter-positive cells with nuclear
1,O=C(O)c1cn(-c2ccc(F)cc2)c2cc(N3CCNCC3)c(F)cc2c1=O [Sarafloxacin HCl],0.0847 ± 0.061
2,CN1CCc2cccc3c2[C@H]1Cc1ccc(O)c(O)c1-3 [R-(-)-Apomorphine HCl Hemihydrate],0.201 ± 0.17
3,CC[C@H]1OC(=O)C[C@@H](O)[C@H](C)[C@@H](O[C@@H]2O[C@H](C)[C@@H](O)[C@H](N(C)C)[C@H]2O)[C@@H](CCN2C[C@H](C)C[C@H](C)C2)C[C@@H](C)C(=O)/C=C/C(C)=C/[C@@H]1CO[C@@H]1O[C@H](C)[C@@H](O)[C@@H](OC)[C@H]1OC [Tilmicosin],0.142 ± 0.084
4,NC12CC3CC(CC(C3)C1)C2 [Amantadine hydrochloride (Symmetrel)],0.137 ± 0.084
5,Cc1cn(-c2cc(NC(=O)c3ccc(C)c(Nc4nccc(-c5cccnc5)n4)c3)cc(C(F)(F)F)c2)cn1 [Nilotinib (AMN-107)],0.0897 ± 0.076
6,CC1=C(/C=C/C(C)=C/C=C/C(C)=C\C(=O)O)C(C)(C)CCC1 [Isotretinoin],0.11 ± 0.062
7,CC[C@H]1OC(=O)C[C@@H](O)[C@H](C)[C@@H](O[C@@H]2O[C@H](C)[C@@H](O[C@H]3C[C@@](C)(O)[C@@H](O)[C@H](C)O3)[C@H](N(C)C)[C@H]2O)[C@@H](CC=O)C[C@@H](C)C(=O)/C=C/C(C)=C/[C@@H]1CO[C@@H]1O[C@H](C)[C@@H](O)[C@@H](OC)[C@H]1OC [Tylosin tartrate],0.129 ± 0.072
8,CN1CCOC(c2ccccc2)c2ccccc2C1 (stereo not given) [Nefopam HCl],0.121 ± 0.094
9,CCCCNC(=O)NS(=O)(=O)c1ccc(C)cc1 [Tolbutamide],0.136 ± 0.11
10,NS(=O)(=O)c1cc2c(cc1Cl)N=CNS2(=O)=O [Chlorothiazide],0.118 ± 0.078
11,CN(Cc1cnc2nc(N)nc(N)c2n1)c1ccc(C(=O)N[C@@H](CCC(=O)O)C(=O)O)cc1 [Abitrexate (Methotrexate)],0.0974 ± 0.056
12,CCOC(=O)[C@H](CCc1ccccc1)N[C@H]1CS[C@H](c2cccs2)CN(CC(=O)O)C1=O [Temocapril HCl],0.0921 ± 0.043
13,O=C(Nc1ccc([N+](=O)[O-])cc1Cl)c1cc(Cl)ccc1O [Niclosamide (Niclocide)],0.323 ± 0.29
14,CCCCCCCCCCCC[N+](C)(C)CCOc1ccccc1 [Domiphen Bromide],0.14 ± 0.085
15,O=c1[nH]c(=O)n([C@H]2C[C@H](O)[C@@H](CO)O2)cc1F [Floxuridine],0.0607 ± 0.04
16,CCN1CCN(c2cc(-c3ccc(F)cc3)c3c(n2)CCCCCC3)CC1 [Blonanserin (Lonasen)],0.101 ± 0.091
17,O=C(Oc1ccccc1C(=O)O)c1ccccc1O [Sasapyrine],0.127 ± 0.082
18,Nc1nc(Cl)nc2c1ncn2[C@H]1C[C@H](O)[C@@H](CO)O1 [Cladribine],0.0781 ± 0.03
19,C1N2CN3CN1CN(C2)C3 [Methenamine (Mandelamine)],0.104 ± 0.077
20,O=P(O)(O)C(O)(Cc1cccnc1)P(=O)(O)O [Risedronic acid (Actonel)],0.104 ± 0.087
21,C#C[C@]1(O)CC[C@H]2[C@@H]3CCC4=CC(=O)CC[C@@H]4[C@H]3CC[C@@]21C [norethindrone],0.164 ± 0.15
22,O=C(O)c1cc(/N=N/c2ccc(O)c(C(=O)O)c2)ccc1O [olsalazine sodium],0.0826 ± 0.035
23,NCCCCCC(=O)O [Aminocaproic acid (Amicar)],0.0758 ± 0.021
24,CCc1nc(N)nc(N)c1-c1ccc(Cl)cc1 [Pyrimethamine],0.114 ± 0.056
25,C[C@]12C=CC(=O)C=C1CC[C@@H]1[C@@H]2[C@@H](O)C[C@@]2(C)[C@H]1CC[C@]2(O)C(=O)CO [Prednisolone (Hydroretrocortine)],0.136 ± 0.11
26,CCOc1nc2cccc(C(=O)O)c2n1Cc1ccc(-c2ccccc2-c2nnn[nH]2)cc1 [Candesartan (Atacand)],0.108 ± 0.088
27,O=C(NC(Cc1cc(=O)[nH]c2ccccc12)C(=O)O)c1ccc(Cl)cc1 (stereo not given) [Rebamipide],0.117 ± 0.09
28,O=C(Nc1ccccc1)c1ccccc1O [Salicylanilide],0.115 ± 0.071
29,OC(CCN1CCCC1)(c1ccccc1)C1CCCCC1 (stereo not given) [Procyclidine HCl],0.15 ± 0.17
30,Cc1cccc(C)c1OCC(=O)N[C@@H](Cc1ccccc1)[C@@H](O)C[C@H](Cc1ccccc1)NC(=O)[C@H](C(C)C)N1CCCNC1=O [Lopinavir (ABT-378)],0.105 ± 0.069

# Test system: HeLa RPL29-GFP reporter
# Experiment: fraction of reporter-positive cells with nuclear (nucleolar or nucleolar/nucleoplasmic) RPL29-GFP (MainHitrate); higher = more cells with nucleolar/nuclear readout signal (for ENP1 -LMB: less RNAPI inhibition; for +LMB ENP1 and RP reporters: stronger nuclear/nucleolar retention, i.e. ribosome biogenesis defect)
# Conditions: concentration: 1 µM; treatment time: 6 h
row,Structure (SMILES),fraction of reporter-positive cells with nuclear
1,CC1(C)O[C@@H]2C[C@H]3[C@@H]4CCC5=CC(=O)C=C[C@]5(C)[C@H]4[C@@H](O)C[C@]3(C)[C@]2(C(=O)CO)O1 [Desonide],0.271 ± 0.054
2,Cc1ncc(C[n+]2csc(CCO)c2C)c(N)n1 [Thiamine HCl (Vitamin B1)],0.202 ± 0.076
3,CCCOc1ccc(C(=O)OCCN(CC)CC)cc1N [Proparacaine HCl],0.186 ± 0.075
4,NC[C@@H]1O[C@H](O[C@H]2[C@@H](O)[C@H](O[C@@H]3[C@@H](O)[C@H](N)C[C@H](N)[C@H]3O[C@H]3O[C@H](CO)[C@@H](O)[C@H](O)[C@H]3N)O[C@@H]2CO)[C@H](N)[C@@H](O)[C@@H]1O [Paromomycin Sulfate],0.203 ± 0.049
5,C[C@@H]1C(=O)O[C@H]2C[C@@]34[C@H]5C[C@@H](C(C)(C)C)[C@]36[C@@H](OC(=O)[C@@H]6O)O[C@@]4(C(=O)O5)[C@]21O [Ginkgolide A],0.208 ± 0.058
6,CC(C)C(=O)Oc1ccc(CO)cc1[C@H](CCN(C(C)C)C(C)C)c1ccccc1 [Fesoterodine fumarate (Toviaz)],0.229 ± 0.054
7,CC(COc1ccccc1)N(CCCl)Cc1ccccc1 (stereo not given) [Phenoxybenzamine HCl],0.21 ± 0.066
8,CCc1c2c(nc3ccc(OC(=O)N4CCC(N5CCCCC5)CC4)cc13)-c1cc3c(c(=O)n1C2)COC(=O)[C@]3(O)CC [Irinotecan HCl Trihydrate (Campto)],0.228 ± 0.068
9,Cc1ccc(NC(=O)c2ccc(CN3CCN(C)CC3)cc2)cc1Nc1nccc(-c2cccnc2)n1 [Imatinib (Gleevec)],0.236 ± 0.052
10,O=C(O)c1cn(-c2ccc(F)cc2)c2cc(N3CCNCC3)c(F)cc2c1=O [Sarafloxacin HCl],0.245 ± 0.1
11,CN1CCc2cccc3c2[C@H]1Cc1ccc(O)c(O)c1-3 [R-(-)-Apomorphine HCl Hemihydrate],0.29 ± 0.19
12,CC[C@H]1OC(=O)C[C@@H](O)[C@H](C)[C@@H](O[C@@H]2O[C@H](C)[C@@H](O)[C@H](N(C)C)[C@H]2O)[C@@H](CCN2C[C@H](C)C[C@H](C)C2)C[C@@H](C)C(=O)/C=C/C(C)=C/[C@@H]1CO[C@@H]1O[C@H](C)[C@@H](O)[C@@H](OC)[C@H]1OC [Tilmicosin],0.213 ± 0.045
13,NC12CC3CC(CC(C3)C1)C2 [Amantadine hydrochloride (Symmetrel)],0.215 ± 0.07
14,Cc1cn(-c2cc(NC(=O)c3ccc(C)c(Nc4nccc(-c5cccnc5)n4)c3)cc(C(F)(F)F)c2)cn1 [Nilotinib (AMN-107)],0.186 ± 0.045
15,CC1=C(/C=C/C(C)=C/C=C/C(C)=C\C(=O)O)C(C)(C)CCC1 [Isotretinoin],0.215 ± 0.05
16,CC[C@H]1OC(=O)C[C@@H](O)[C@H](C)[C@@H](O[C@@H]2O[C@H](C)[C@@H](O[C@H]3C[C@@](C)(O)[C@@H](O)[C@H](C)O3)[C@H](N(C)C)[C@H]2O)[C@@H](CC=O)C[C@@H](C)C(=O)/C=C/C(C)=C/[C@@H]1CO[C@@H]1O[C@H](C)[C@@H](O)[C@@H](OC)[C@H]1OC [Tylosin tartrate],0.208 ± 0.092
17,CN1CCOC(c2ccccc2)c2ccccc2C1 (stereo not given) [Nefopam HCl],0.219 ± 0.045
18,CCCCNC(=O)NS(=O)(=O)c1ccc(C)cc1 [Tolbutamide],0.229 ± 0.098

row,Structure (SMILES),fraction of reporter-positive cells with nuclear
1,NS(=O)(=O)c1cc2c(cc1Cl)N=CNS2(=O)=O [Chlorothiazide],0.232 ± 0.062
2,CN(Cc1cnc2nc(N)nc(N)c2n1)c1ccc(C(=O)N[C@@H](CCC(=O)O)C(=O)O)cc1 [Abitrexate (Methotrexate)],0.191 ± 0.08
3,CCOC(=O)[C@H](CCc1ccccc1)N[C@H]1CS[C@H](c2cccs2)CN(CC(=O)O)C1=O [Temocapril HCl],0.231 ± 0.055
4,O=C(Nc1ccc([N+](=O)[O-])cc1Cl)c1cc(Cl)ccc1O [Niclosamide (Niclocide)],0.222 ± 0.086
5,CCCCCCCCCCCC[N+](C)(C)CCOc1ccccc1 [Domiphen Bromide],0.199 ± 0.046
6,O=c1[nH]c(=O)n([C@H]2C[C@H](O)[C@@H](CO)O2)cc1F [Floxuridine],0.263 ± 0.16
7,CCN1CCN(c2cc(-c3ccc(F)cc3)c3c(n2)CCCCCC3)CC1 [Blonanserin (Lonasen)],0.211 ± 0.069
8,O=C(Oc1ccccc1C(=O)O)c1ccccc1O [Sasapyrine],0.224 ± 0.042
9,Nc1nc(Cl)nc2c1ncn2[C@H]1C[C@H](O)[C@@H](CO)O1 [Cladribine],0.182 ± 0.072
10,C1N2CN3CN1CN(C2)C3 [Methenamine (Mandelamine)],0.209 ± 0.069
11,O=P(O)(O)C(O)(Cc1cccnc1)P(=O)(O)O [Risedronic acid (Actonel)],0.168 ± 0.079
12,C#C[C@]1(O)CC[C@H]2[C@@H]3CCC4=CC(=O)CC[C@@H]4[C@H]3CC[C@@]21C [norethindrone],0.209 ± 0.021
13,O=C(O)c1cc(/N=N/c2ccc(O)c(C(=O)O)c2)ccc1O [olsalazine sodium],0.176 ± 0.023
14,NCCCCCC(=O)O [Aminocaproic acid (Amicar)],0.244 ± 0.02
15,CCc1nc(N)nc(N)c1-c1ccc(Cl)cc1 [Pyrimethamine],0.211 ± 0.063
16,C[C@]12C=CC(=O)C=C1CC[C@@H]1[C@@H]2[C@@H](O)C[C@@]2(C)[C@H]1CC[C@]2(O)C(=O)CO [Prednisolone (Hydroretrocortine)],0.233 ± 0.062
17,CCOc1nc2cccc(C(=O)O)c2n1Cc1ccc(-c2ccccc2-c2nnn[nH]2)cc1 [Candesartan (Atacand)],0.214 ± 0.071

# From the supplement of paper PMC12542422
